PubChem BioAssay AID1224826, NIAID | 2016

Screen: 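Genes that change LPS-induced Tnf promoter activity in mouse macrophages when knocked down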 (primary screen)
Cells: RAW264.7 G9 macrophages from mouse bearing reporters for p65 (GFP) and the Tnf promoter (mCherry)
Reagent: siRNA pool against mouse genes, 100 nM
Time to read-out: 16 h of LPS stimulation, after 2 days of siRNA transfection
Treatment: bacterial lipopolysaccharide (Salmonella minnesota R595), 10 ng/ml
Measured: 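Nuclear mCherry signal of the Tnf promoter reporter measured by imaging after background removal, scaled to each plate median and turned into robust z-scores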
Scale: Tnf reporter robust z-score: higher = stronger Tnf promoter reporter signal after LPS
Rule for the call: 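a well counts as active at a score of -1.3 or below (Tlr4 knock-down control median) or above 3 (raised signal); controls and wells holding fewer than 50 cells are excluded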
Calls: active = Tnf reporter clearly lowered or raised; inactive = no clear change in Tnf reporter
This is one part, drawn at random, of about 17,000 deposited reagents. In the full data, about 1,110 (6.6%) got an active call. 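Active means lowered or raised reporter signal; replicate intensities are raw and not normalised per plate.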 Further read-outs or replicates are left out here.

Tbl1xr1
- Tnf reporter robust z-score: -1.03
- fewer than 50 cells in well: enough cells in well
- call: inactive

Osbpl3
- Tnf reporter robust z-score: -0.35
- fewer than 50 cells in well: enough cells in well
- call: inactive

Depdc1b
- Tnf reporter robust z-score: 0.97
- fewer than 50 cells in well: enough cells in well
- call: inactive

Ggt6
- Tnf reporter robust z-score: 1.09
- fewer than 50 cells in well: enough cells in well
- call: inactive

Paip1
- Tnf reporter robust z-score: 2.58
- fewer than 50 cells in well: enough cells in well
- call: inactive

Tmem140
- Tnf reporter robust z-score: 3.32
- fewer than 50 cells in well: enough cells in well
- call: active

Dok5
- Tnf reporter robust z-score: -0.52
- fewer than 50 cells in well: enough cells in well
- call: inactive

Mtg1
- Tnf reporter robust z-score: 0.87
- fewer than 50 cells in well: enough cells in well
- call: inactive

Mif4gd
- fewer than 50 cells in well: fewer than 50 cells per well; well left out of calls
- call: inactive

Or2r3
- Tnf reporter robust z-score: -0.05
- fewer than 50 cells in well: enough cells in well
- call: inactive

Thyn1
- fewer than 50 cells in well: fewer than 50 cells per well; well left out of calls
- call: inactive

Ghrhr
- Tnf reporter robust z-score: 0.64
- fewer than 50 cells in well: enough cells in well
- call: inactive

Dgkq
- Tnf reporter robust z-score: -0.5
- fewer than 50 cells in well: enough cells in well
- call: inactive

Trit1
- Tnf reporter robust z-score: 0.09
- fewer than 50 cells in well: enough cells in well
- call: inactive

L3mbtl2
- Tnf reporter robust z-score: -0.12
- fewer than 50 cells in well: enough cells in well
- call: inactive

Lyve1
- Tnf reporter robust z-score: 2.56
- fewer than 50 cells in well: enough cells in well
- call: inactive

Dzip1l
- fewer than 50 cells in well: fewer than 50 cells per well; well left out of calls
- call: inactive

Btla
- Tnf reporter robust z-score: 1.24
- fewer than 50 cells in well: enough cells in well
- call: inactive

Pla2g2d
- Tnf reporter robust z-score: -0.08
- fewer than 50 cells in well: enough cells in well
- call: inactive

Ecel1
- Tnf reporter robust z-score: 0.37
- fewer than 50 cells in well: enough cells in well
- call: inactive

Prl8a8
- Tnf reporter robust z-score: 1.21
- fewer than 50 cells in well: enough cells in well
- call: inactive

In a second layout: entries from further up.
| Target gene | Tnf reporter robust z-score | fewer than 50 cells in well | call |
| --- | --- | --- | --- |
| Ecel1 | 0.37 | enough cells in well | inactive |
| Prl8a8 | 1.21 | enough cells in well | inactive |
